Reference: publication PMC12684390

Protein sequences, listed by entry. Tags and fused reporters are not part of them.
UniProt Q5TF58: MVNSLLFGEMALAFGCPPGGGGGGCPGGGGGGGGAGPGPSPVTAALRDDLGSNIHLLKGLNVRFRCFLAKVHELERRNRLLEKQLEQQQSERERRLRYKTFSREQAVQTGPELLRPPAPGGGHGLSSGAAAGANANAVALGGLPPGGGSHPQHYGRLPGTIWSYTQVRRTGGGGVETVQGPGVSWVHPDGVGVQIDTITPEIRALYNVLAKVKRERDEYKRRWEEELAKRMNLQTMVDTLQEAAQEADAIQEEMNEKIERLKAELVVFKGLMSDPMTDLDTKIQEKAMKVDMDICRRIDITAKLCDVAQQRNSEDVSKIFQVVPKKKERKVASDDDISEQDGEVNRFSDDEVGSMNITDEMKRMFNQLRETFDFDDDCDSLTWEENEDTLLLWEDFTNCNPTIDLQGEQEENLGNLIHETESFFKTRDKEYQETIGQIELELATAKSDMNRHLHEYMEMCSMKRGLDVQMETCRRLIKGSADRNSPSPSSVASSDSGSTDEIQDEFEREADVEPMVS
UniProt Q13426: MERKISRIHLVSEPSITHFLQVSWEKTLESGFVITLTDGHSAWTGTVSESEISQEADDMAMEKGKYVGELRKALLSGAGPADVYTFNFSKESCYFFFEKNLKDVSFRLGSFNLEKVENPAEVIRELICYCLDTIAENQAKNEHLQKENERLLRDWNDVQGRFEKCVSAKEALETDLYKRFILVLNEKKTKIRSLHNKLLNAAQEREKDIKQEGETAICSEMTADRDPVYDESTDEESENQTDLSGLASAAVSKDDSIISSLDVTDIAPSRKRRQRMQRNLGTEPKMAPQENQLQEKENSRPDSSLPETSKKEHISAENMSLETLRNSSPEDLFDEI
UniProt Q0D2I5: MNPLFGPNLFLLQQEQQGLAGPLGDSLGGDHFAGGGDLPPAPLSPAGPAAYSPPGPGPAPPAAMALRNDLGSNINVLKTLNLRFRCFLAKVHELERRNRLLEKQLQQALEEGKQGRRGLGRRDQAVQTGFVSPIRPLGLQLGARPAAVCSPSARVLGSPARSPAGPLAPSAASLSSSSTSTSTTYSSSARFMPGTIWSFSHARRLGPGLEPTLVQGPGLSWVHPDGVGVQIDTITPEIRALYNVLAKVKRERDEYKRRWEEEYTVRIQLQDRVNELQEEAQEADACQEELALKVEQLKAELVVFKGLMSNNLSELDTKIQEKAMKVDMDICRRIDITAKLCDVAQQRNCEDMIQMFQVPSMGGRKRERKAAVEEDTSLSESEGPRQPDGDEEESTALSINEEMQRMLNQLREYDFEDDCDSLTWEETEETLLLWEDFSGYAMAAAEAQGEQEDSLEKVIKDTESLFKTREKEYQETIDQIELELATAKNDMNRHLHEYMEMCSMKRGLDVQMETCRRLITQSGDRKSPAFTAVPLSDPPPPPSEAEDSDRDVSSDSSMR
UniProt Q9H9Q4: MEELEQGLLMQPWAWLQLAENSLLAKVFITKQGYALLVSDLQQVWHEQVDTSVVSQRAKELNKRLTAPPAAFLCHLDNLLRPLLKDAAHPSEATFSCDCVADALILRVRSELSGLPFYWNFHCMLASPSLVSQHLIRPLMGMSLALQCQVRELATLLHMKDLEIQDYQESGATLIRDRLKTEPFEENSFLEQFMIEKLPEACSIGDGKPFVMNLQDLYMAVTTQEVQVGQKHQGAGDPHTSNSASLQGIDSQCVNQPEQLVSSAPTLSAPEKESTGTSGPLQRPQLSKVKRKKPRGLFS

How the values were obtained:
[1] = target: FLAG-IFFO2 (full-length IFFO2) (UniProt Q5TF58); assay: affinity purification with mass spectrometry + co-IP; FLAG-IFFO2 IP on anti-FLAG M2 gel, eluate read by MS (Fig. 1E) and by western blot (Fig. 1F)
[2] = target: FLAG-XRCC4 (human (cDNA from hORFemone v.8.1)) (UniProt Q13426); assay: affinity purification with mass spectrometry; FLAG-XRCC4 expressed in suspension 293 cells, IP on anti-FLAG M2 gel, elution with 3x Flag peptide, MS (Fig. 1A, B); lysis buffer 25 mM Tris-HCl pH 7.5, 150 mM NaCl, 0.5% NP-40, benzonase

Row | binding [1] | binding [2] | Substance
1 | binds | binds | IFFO1 (endogenous) (from UniProt Q0D2I5 1-559)
2 |  | binds | IFFO2 (endogenous) (from UniProt Q5TF58 1-517)
3 | no binding |  | XLF (endogenous) (from UniProt Q9H9Q4 1-299)
4 | binds |  | XRCC4 (endogenous) (from UniProt Q13426 1-336)

These are yes or no findings as the source states them, for the method shown. Binding seen in cells or lysates may run through a third protein. Here binding means that the protein was enriched with, or labelled near, the bait; the list need not be complete. For some assays here: No binding means not detected with the bait.
